In paper PMC4698301:
These are yes or no findings as the source states them, for the method shown.

Protein sequences, listed by entry. Tags and fused reporters are not part of them.
UniProt Q16774: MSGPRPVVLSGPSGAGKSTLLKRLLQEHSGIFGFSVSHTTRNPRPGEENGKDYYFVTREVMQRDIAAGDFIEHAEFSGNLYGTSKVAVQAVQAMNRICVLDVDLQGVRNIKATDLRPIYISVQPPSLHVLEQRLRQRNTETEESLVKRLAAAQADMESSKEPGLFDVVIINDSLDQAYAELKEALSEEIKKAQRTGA

Assays:
[1] = molecular target: human guanylate kinase (human) (UniProt Q16774); experiment: SAXS; synchrotron SAXS (cSAXS beamline X12SA, SLS); forward scattering I(0) compared between the open form (no ligand) and the completely closed forms (GMP + AMP-PNP, Ap5G, GMP + ADP); both purified
[2] = molecular target: human guanylate kinase (human) (UniProt Q16774); experiment: SEC; unliganded hGMPK; elution profile compared with standard proteins; both purified

binding [1]: no binding | binding [2]: no binding
Substance: human guanylate kinase (from UniProt Q16774 1-197) (enzyme)
